# Data published in PubChem BioAssay AID493014 (National Center for Advancing Translational Sciences (NCATS), 2011).
# This is one part of the list. The main result of the screen is listed elsewhere. These columns were measured beside it and carry no call. Compounds called inactive in the main read-out are mostly missing here. The note in brackets gives the kind of curve behind each potency; many fits are weak.
# Assay: qHTS Assay to Find Inhibitors of Chronic Active B-Cell Receptor Signaling
# Conditions: ABC-DLBCL IkBa-CBG/CBR reporter, luminescence ratio (green luciferase fused to IkBa over red control in TMD8 lymphoma cells), 4 h
# In short: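 Concentration-response series (up to 46 uM) were applied to TMD8 dual-reporter cells for 4 h at 37C with doxycycline. Green/red ratio, after filter-overlap correction, defined %Activity; red signal alone was normalised to basal cells and zero luminescence.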
# [1] = measured here: IkBa-CBG green luminescence
# [2] = measured here: CBR red luminescence, cell number
SMILES,AC50 [1],AC50 [2]
CCCOc1ccc2ccccc2c1/C=N/n1c(C)nnc1-n1nc(C)cc1C,"20.6 µM [falling, partial curve, poor fit]",
COc1cc2[nH]c(C(=O)Nc3ccc4c(c3)OCCO4)cc2c(OC)c1OC,,"10 µM [falling, single point]"
CCOc1cccc2sc(NC(=O)CC)nc12,,"5.8 µM [falling, full curve]"
O=C(/C=C/c1ccc2c(c1)OCO2)c1ccccn1,,"3.16 µM [rising, full curve]"
CSc1nnc2c(n1)OC(c1cn(C)c3ccccc13)N(C(C)=O)c1ccccc1-2 (stereo not drawn),,"1.3 µM [falling, full curve, poor fit]"
Cc1ccc2c(c1)C1CN(C)CCC1N2C(=O)COc1ccc(N(C)S(=O)(=O)c2cccs2)cc1 (stereo not drawn),,"35.5 µM [falling, single point]"
COc1cc(OC)cc(C(=O)Nc2ccc(S(=O)(=O)Nc3nc(C)cc(C)n3)cc2)c1,"15.8 µM [falling, single point]",
CC(=O)Cc1nsc(NC(=O)c2cccc(F)c2)n1,,"3.16 µM [falling, single point]"
Cn1c(=O)n(/N=C/c2ccccc2)c2ccccc21,,"6.51 µM [rising, full curve, poor fit]"
O=C(NCC(=O)N(Cc1ccco1)C(C(=O)NC1CCCC1)c1ccncc1)c1cccs1 (stereo not drawn),,"0.00461 µM [rising, full curve, poor fit]"
Cc1ccc(NC(=S)N(CCN2CCOCC2)Cc2ccccc2F)cc1,,"3.55 µM [rising, full curve, poor fit]"
CC#CCCCC(=O)Nc1cc(OC)nc(OC)n1,,"39.8 µM [falling, partial curve, poor fit]"
CCOC(=O)c1c(NC(=O)COC(=O)Cn2cnc3ccccc32)sc2c1CCC(C)C2 (stereo not drawn),,"3.26 µM [rising, full curve, poor fit]"
C=CCn1c(CNc2ccccc2)nnc1SCC(=O)N/N=C/c1ccccc1O,,"35.5 µM [rising, single point]"
COCCN=C1N[C@@H](c2ccc(Br)cc2)C(C(=O)OC)=C(C)N1Cc1ccccc1,,"12.6 µM [falling, partial curve]"
c1ccc(SCc2nc3ccccc3s2)nc1,,"35.5 µM [falling, single point]"
O=C(C[n+]1cc(-c2ccc(F)cc2)n2c1CCC2)N1c2ccccc2Sc2ccccc21,,"23.1 µM [falling, partial curve]"
COc1cc(C(C[N+](=O)[O-])c2c(C)cc3ccccn23)ccc1O (stereo not drawn),,"4.47 µM [falling, full curve]"

# Part of the list above in order of length of the SMILES, ascending.
SMILES,AC50 [1],AC50 [2]
CC(=O)Cc1nsc(NC(=O)c2cccc(F)c2)n1,,"3.16 µM [falling, single point]"
C=CCn1c(CNc2ccccc2)nnc1SCC(=O)N/N=C/c1ccccc1O,,"35.5 µM [rising, single point]"
CSc1nnc2c(n1)OC(c1cn(C)c3ccccc13)N(C(C)=O)c1ccccc1-2 (stereo not drawn),,"1.3 µM [falling, full curve, poor fit]"
